# The other results are listed elsewhere or left out.
# What was measured:
# Test in all cases: glycan array binding signal (z-score within array); higher = stronger binding
# Settings in all cases: glycan notation: IUPAC condensed, linker removed
# Man(a1-6)Man = molecular target: Man(a1-6)Man
# Summary of the method: (§1)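 Glycan array data came from 3228 arrays in the Consortium for Functional Glycomics database, and only arrays with an available protein sequence were kept. Glycan names were put into IUPAC-condensed notation, and columns mapping to the same glycan were averaged. The binding signal is a within-array Z-score, averaged across arrays of one protein sequence run at different concentrations or buffers and across linkers. A negative Z-score can be read as non-binding.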
# Man(b1-4)GlcNAc = molecular target: Man(b1-4)GlcNAc
# Summary of the method: as §1
# MurNAc(b1-4)GlcNAc = molecular target: MurNAc(b1-4)GlcNAc
# Summary of the method: as §1
# Neu5Ac(a2-3)Gal = molecular target: Neu5Ac(a2-3)Gal
# Summary of the method: as §1
# [1] = molecular target: Neu5Ac(a2-3)Gal(b1-3)GalNAc
# Summary of the method: as §1
# [2] = molecular target: Neu5Ac(a2-3)Gal(b1-3)GalNAc(b1-3)Gal(a1-4)Gal(b1-4)Glc
# Summary of the method: as §1
# [3] = molecular target: Neu5Ac(a2-3)Gal(b1-3)GalNAc(b1-4)Gal(b1-4)Glc
# Summary of the method: as §1
# [4] = molecular target: Neu5Ac(a2-3)Gal(b1-3)GalNAc(b1-4)[Neu5Ac(a2-3)]Gal(b1-4)Glc
# Summary of the method: as §1
# [5] = molecular target: Neu5Ac(a2-3)Gal(b1-3)GalNAc(b1-4)[Neu5Ac(a2-8)Neu5Ac(a2-3)]Gal(b1-4)Glc
# Summary of the method: as §1
# [6] = molecular target: Neu5Ac(a2-3)Gal(b1-3)GalNAc6S
# Summary of the method: as §1
# [7] = molecular target: Neu5Ac(a2-3)Gal(b1-3)GlcNAc
# Summary of the method: as §1
# [8] = molecular target: Neu5Ac(a2-3)Gal(b1-3)GlcNAc(b1-2)Man
# Summary of the method: as §1
# [9] = molecular target: Neu5Ac(a2-3)Gal(b1-3)GlcNAc(b1-2)Man(a1-3)[GlcNAc(b1-4)][Neu5Ac(a2-3)Gal(b1-3)GlcNAc(b1-2)Man(a1-6)]Man(b1-4)GlcNAc(b1-4)GlcNAc
# Summary of the method: as §1
# [10] = molecular target: Neu5Ac(a2-3)Gal(b1-3)GlcNAc(b1-2)Man(a1-3)[Neu5Ac(a2-3)Gal(b1-3)GlcNAc(b1-2)Man(a1-6)]Man(b1-4)GlcNAc(b1-4)GlcNAc
# Summary of the method: as §1
# [11] = molecular target: Neu5Ac(a2-3)Gal(b1-3)GlcNAc(b1-2)[Neu5Ac(a2-3)Gal(b1-3)GlcNAc(b1-4)]Man(a1-6)[Neu5Ac(a2-3)Gal(b1-3)GlcNAc(b1-2)Man(a1-3)]Man(b1-4)GlcNAc(b1-4)GlcNAc
# Summary of the method: as §1
# [12] = molecular target: Neu5Ac(a2-3)Gal(b1-3)GlcNAc(b1-3)Gal(b1-3)GlcNAc
# Summary of the method: as §1
# [13] = molecular target: Neu5Ac(a2-3)Gal(b1-3)GlcNAc(b1-3)Gal(b1-4)GlcNAc
# Summary of the method: as §1
# [14] = molecular target: Neu5Ac(a2-3)Gal(b1-3)GlcNAc(b1-3)GalNAc
# Summary of the method: as §1
# [15] = molecular target: Neu5Ac(a2-3)Gal(b1-3)GlcNAc(b1-6)GalNAc
# Summary of the method: as §1
# [16] = molecular target: Neu5Ac(a2-3)Gal(b1-3)GlcNAc6S
# Summary of the method: as §1
# [17] = molecular target: Neu5Ac(a2-3)Gal(b1-3)[Fuc(a1-4)]GlcNAc
# Summary of the method: as §1
# [18] = molecular target: Neu5Ac(a2-3)Gal(b1-3)[Fuc(a1-4)]GlcNAc(b1-3)Gal(b1-3)[Fuc(a1-4)]GlcNAc
# Summary of the method: as §1
# [19] = molecular target: Neu5Ac(a2-3)Gal(b1-3)[Fuc(a1-4)]GlcNAc(b1-3)Gal(b1-4)[Fuc(a1-3)]GlcNAc
# Summary of the method: as §1
# [20] = molecular target: Neu5Ac(a2-3)Gal(b1-3)[GlcNAc(b1-6)]GalNAc
# Summary of the method: as §1
# [21] = molecular target: Neu5Ac(a2-3)Gal(b1-3)[Neu5Ac(a2-3)Gal(b1-4)]GlcNAc
# Summary of the method: as §1
# [22] = molecular target: Neu5Ac(a2-3)Gal(b1-3)[Neu5Ac(a2-6)]GalNAc
# Summary of the method: as §1
# [23] = molecular target: Neu5Ac(a2-3)Gal(b1-3)[Neu5Ac(a2-6)]GlcNAc(b1-3)[Fuc(a1-3)[Gal(b1-4)]GlcNAc(b1-6)]Gal(b1-4)Glc
# Summary of the method: as §1
# [24] = molecular target: Neu5Ac(a2-3)Gal(b1-3)]Neu5Ac(a2-3)Gal(b1-4)]GlcNAc
# Summary of the method: as §1
# Neu5Ac(a2-3)Gal(b1-4)Glc = molecular target: Neu5Ac(a2-3)Gal(b1-4)Glc
# Summary of the method: as §1
# [25] = molecular target: Neu5Ac(a2-3)Gal(b1-4)GlcNAc
# Summary of the method: as §1
binder,measurement,setting,value
KISKRILTGKK [NK11 (Sus scrofa)],glycan array binding signal (z-score),Man(a1-6)Man,-0.205
same,glycan array binding signal (z-score),Man(b1-4)GlcNAc,-0.365
same,glycan array binding signal (z-score),MurNAc(b1-4)GlcNAc,-0.745
same,glycan array binding signal (z-score),Neu5Ac(a2-3)Gal,-0.568
same,glycan array binding signal (z-score),[1],0.104
same,glycan array binding signal (z-score),[2],-0.397
same,glycan array binding signal (z-score),[3],-1.55
same,glycan array binding signal (z-score),[4],0.981
same,glycan array binding signal (z-score),[5],-0.297
same,glycan array binding signal (z-score),[6],1.06
same,glycan array binding signal (z-score),[7],0.637
same,glycan array binding signal (z-score),[8],-1.85
same,glycan array binding signal (z-score),[9],0.854
same,glycan array binding signal (z-score),[10],-0.579
same,glycan array binding signal (z-score),[11],0.219
same,glycan array binding signal (z-score),[12],-0.342
same,glycan array binding signal (z-score),[13],-0.059
same,glycan array binding signal (z-score),[14],0.329
same,glycan array binding signal (z-score),[15],2.33
same,glycan array binding signal (z-score),[16],1.21
same,glycan array binding signal (z-score),[17],-0.073
same,glycan array binding signal (z-score),[18],0.113
same,glycan array binding signal (z-score),[19],0.541
same,glycan array binding signal (z-score),[20],0.233
same,glycan array binding signal (z-score),[21],0.152
same,glycan array binding signal (z-score),[22],-0.164
same,glycan array binding signal (z-score),[23],1.41
same,glycan array binding signal (z-score),[24],1.82
same,glycan array binding signal (z-score),Neu5Ac(a2-3)Gal(b1-4)Glc,0.15
same,glycan array binding signal (z-score),[25],0.156

# 2 entries drawn at random from those above, as already listed:
binder,measurement,setting,value
KISKRILTGKK [NK11 (Sus scrofa)],glycan array binding signal (z-score),[2],-0.397
same,glycan array binding signal (z-score),[18],0.113

# From the supplement of paper PMC8728848
